Data source: PubChem BioAssay AID743121 (NCATS, 2013)

Aim: 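Partners whose loss is lethal together with topoisomerase I blockade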 (primary screen)
System: MDA-MB-231 cells, a human breast cancer line
Reagents: single siRNA against human genes, 20 nM siRNA (0.8 pmol per well)
Time to read-out: 120 h (drug added 48 h after transfection, read 72 h later)
Conditions: camptothecin 20 nM (about EC30) for 72 h; vehicle 0.1% DMSO in parallel plates
Measurement: 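CellTiter-Glo ATP signal, scaled to control siRNA as percent viability; sensitisation given as log2 of untreated divided by camptothecin-treated viability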
Reading the numbers: log2 vehicle/camptothecin viability: higher = stronger sensitisation to camptothecin; viability with camptothecin: higher = more viable cells
Rule for the call: 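Each gene scored by redundant siRNA activity (RSA) over its individual siRNA ratios; a gene is called active at p < 0.001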
The whole screen tested about 26,000 reagents; this is an unselected part. 167 of all reagents (0.63%) were called active. 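Calls are per gene from RSA p-values that are not deposited; an individual active-marked siRNA can sensitise only weakly.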 Reagents against one gene are numbered here. Further read-outs or replicates are left out here.

| gene knocked down | reagent no. | log2 vehicle/camptothecin viability | viability with camptothecin (% of control) | Call |
| --- | --- | --- | --- | --- |
| CLEC1B (C-type lectin domain family 1 member B) | 1 | 0.141 | 47.7 | inactive |
| CLEC1B (C-type lectin domain family 1 member B) | 2 | 0.914 | 17.6 | inactive |
| CLEC1B (C-type lectin domain family 1 member B) | 3 | 0.121 | 64.1 | inactive |
| CLEC1B (C-type lectin domain family 1 member B) | 4 | -0.251 | 110 | inactive |
| GUCY1B2 (guanylate cyclase 1 soluble subunit beta 2 (pseudogene)) | 1 | -0.0984 | 103 | inactive |
| GUCY1B2 (guanylate cyclase 1 soluble subunit beta 2 (pseudogene)) | 2 | -0.367 | 29.9 | inactive |
| GUCY1B2 (guanylate cyclase 1 soluble subunit beta 2 (pseudogene)) | 3 | -0.422 | 84.8 | inactive |
| GUCY1B2 (guanylate cyclase 1 soluble subunit beta 2 (pseudogene)) | 4 | -0.0439 | 104 | inactive |
| IRAK4 (interleukin 1 receptor associated kinase 4) | 1 | 0.217 | 87.5 | inactive |
| IRAK4 (interleukin 1 receptor associated kinase 4) | 2 | 0.111 | 63 | inactive |
| IRAK4 (interleukin 1 receptor associated kinase 4) | 3 | 0.19 | 52.1 | inactive |
| IRAK4 (interleukin 1 receptor associated kinase 4) | 4 | 0.0521 | 87.9 | inactive |
| BCL10 (BCL10 immune signaling adaptor) | 1 | -0.301 | 93.4 | inactive |
| BCL10 (BCL10 immune signaling adaptor) | 2 | -0.0712 | 81.5 | inactive |
| BCL10 (BCL10 immune signaling adaptor) | 3 | -0.142 | 75.9 | inactive |
| BCL10 (BCL10 immune signaling adaptor) | 4 | -0.35 | 72.1 | inactive |
| PDE7A (phosphodiesterase 7A) | 1 | -0.468 | 98.1 | inactive |
| PDE7A (phosphodiesterase 7A) | 2 | -0.137 | 36.2 | inactive |
| PDE7A (phosphodiesterase 7A) | 3 | -1.27 | 13.4 | inactive |
| PDE7A (phosphodiesterase 7A) | 4 | 0.00718 | 92.2 | inactive |
| RAB5B (RAB5B, member RAS oncogene family) | 1 | -0.0912 | 111 | inactive |
| RAB5B (RAB5B, member RAS oncogene family) | 2 | -0.375 | 84.7 | inactive |
| RAB5B (RAB5B, member RAS oncogene family) | 3 | -0.517 | 139 | inactive |
| BCL2L10 (BCL2 like 10) | 1 | -0.0062 | 52.8 | inactive |
| BCL2L10 (BCL2 like 10) | 2 | 0.25 | 66.1 | inactive |
| BCL2L10 (BCL2 like 10) | 3 | -0.584 | 18 | inactive |
| BCL2L10 (BCL2 like 10) | 4 | 0.917 | 51.1 | inactive |

6 entries from above, showing only “log2 vehicle/camptothecin viability”:
GUCY1B2 (guanylate cyclase 1 soluble subunit beta 2 (pseudogene)) #2 = -0.367
GUCY1B2 (guanylate cyclase 1 soluble subunit beta 2 (pseudogene)) #3 = -0.422
GUCY1B2 (guanylate cyclase 1 soluble subunit beta 2 (pseudogene)) #4 = -0.0439
IRAK4 (interleukin 1 receptor associated kinase 4) #1 = 0.217
IRAK4 (interleukin 1 receptor associated kinase 4) #2 = 0.111
IRAK4 (interleukin 1 receptor associated kinase 4) #3 = 0.19

The listing continues.
| gene knocked down | reagent no. | log2 vehicle/camptothecin viability | viability with camptothecin (% of control) | Call |
| --- | --- | --- | --- | --- |
| GANC (glucosidase alpha, neutral C) | 1 | -0.397 | 68.6 | inactive |
| GANC (glucosidase alpha, neutral C) | 2 | -0.197 | 81.8 | inactive |
| GANC (glucosidase alpha, neutral C) | 3 | -0.404 | 39.7 | inactive |
| GANC (glucosidase alpha, neutral C) | 4 | -0.0294 | 89.9 | inactive |
| SIK1 (salt inducible kinase 1) | 1 | -0.181 | 78.6 | inactive |
| SIK1 (salt inducible kinase 1) | 2 | -0.243 | 106 | inactive |
| SIK1 (salt inducible kinase 1) | 3 | -0.568 | 93.7 | inactive |
| SIK1 (salt inducible kinase 1) | 4 | -0.257 | 81.6 | inactive |
| LEFTY2 (left-right determination factor 2) | 1 | -0.291 | 54.6 | inactive |
| LEFTY2 (left-right determination factor 2) | 2 | 0.365 | 80.3 | inactive |
| LEFTY2 (left-right determination factor 2) | 3 | -0.257 | 90.7 | inactive |
| GRM7 (glutamate metabotropic receptor 7) | 1 | -0.471 | 98.6 | inactive |
| GRM7 (glutamate metabotropic receptor 7) | 2 | 0.017 | 79.7 | inactive |
| GRM7 (glutamate metabotropic receptor 7) | 3 | -0.213 | 115 | inactive |
| GRM7 (glutamate metabotropic receptor 7) | 4 | 0.15 | 107 | inactive |
| NOP16 (NOP16 nucleolar protein) | 1 | -0.384 | 97.2 | inactive |
| NOP16 (NOP16 nucleolar protein) | 2 | -0.596 | 81.9 | inactive |
| OBSCN | 1 | -0.144 | 85.7 | inactive |
| OBSCN | 2 | -0.0497 | 93.4 | inactive |
| OBSCN | 3 | 0.0713 | 47 | inactive |
| OBSCN | 4 | 0.0106 | 84.2 | inactive |
